The results in this text go back to article PMC10434054.

The chains behind the UniProt entries cited, without tags or fusion partners. Residues count along the entry.
UniProt P35579: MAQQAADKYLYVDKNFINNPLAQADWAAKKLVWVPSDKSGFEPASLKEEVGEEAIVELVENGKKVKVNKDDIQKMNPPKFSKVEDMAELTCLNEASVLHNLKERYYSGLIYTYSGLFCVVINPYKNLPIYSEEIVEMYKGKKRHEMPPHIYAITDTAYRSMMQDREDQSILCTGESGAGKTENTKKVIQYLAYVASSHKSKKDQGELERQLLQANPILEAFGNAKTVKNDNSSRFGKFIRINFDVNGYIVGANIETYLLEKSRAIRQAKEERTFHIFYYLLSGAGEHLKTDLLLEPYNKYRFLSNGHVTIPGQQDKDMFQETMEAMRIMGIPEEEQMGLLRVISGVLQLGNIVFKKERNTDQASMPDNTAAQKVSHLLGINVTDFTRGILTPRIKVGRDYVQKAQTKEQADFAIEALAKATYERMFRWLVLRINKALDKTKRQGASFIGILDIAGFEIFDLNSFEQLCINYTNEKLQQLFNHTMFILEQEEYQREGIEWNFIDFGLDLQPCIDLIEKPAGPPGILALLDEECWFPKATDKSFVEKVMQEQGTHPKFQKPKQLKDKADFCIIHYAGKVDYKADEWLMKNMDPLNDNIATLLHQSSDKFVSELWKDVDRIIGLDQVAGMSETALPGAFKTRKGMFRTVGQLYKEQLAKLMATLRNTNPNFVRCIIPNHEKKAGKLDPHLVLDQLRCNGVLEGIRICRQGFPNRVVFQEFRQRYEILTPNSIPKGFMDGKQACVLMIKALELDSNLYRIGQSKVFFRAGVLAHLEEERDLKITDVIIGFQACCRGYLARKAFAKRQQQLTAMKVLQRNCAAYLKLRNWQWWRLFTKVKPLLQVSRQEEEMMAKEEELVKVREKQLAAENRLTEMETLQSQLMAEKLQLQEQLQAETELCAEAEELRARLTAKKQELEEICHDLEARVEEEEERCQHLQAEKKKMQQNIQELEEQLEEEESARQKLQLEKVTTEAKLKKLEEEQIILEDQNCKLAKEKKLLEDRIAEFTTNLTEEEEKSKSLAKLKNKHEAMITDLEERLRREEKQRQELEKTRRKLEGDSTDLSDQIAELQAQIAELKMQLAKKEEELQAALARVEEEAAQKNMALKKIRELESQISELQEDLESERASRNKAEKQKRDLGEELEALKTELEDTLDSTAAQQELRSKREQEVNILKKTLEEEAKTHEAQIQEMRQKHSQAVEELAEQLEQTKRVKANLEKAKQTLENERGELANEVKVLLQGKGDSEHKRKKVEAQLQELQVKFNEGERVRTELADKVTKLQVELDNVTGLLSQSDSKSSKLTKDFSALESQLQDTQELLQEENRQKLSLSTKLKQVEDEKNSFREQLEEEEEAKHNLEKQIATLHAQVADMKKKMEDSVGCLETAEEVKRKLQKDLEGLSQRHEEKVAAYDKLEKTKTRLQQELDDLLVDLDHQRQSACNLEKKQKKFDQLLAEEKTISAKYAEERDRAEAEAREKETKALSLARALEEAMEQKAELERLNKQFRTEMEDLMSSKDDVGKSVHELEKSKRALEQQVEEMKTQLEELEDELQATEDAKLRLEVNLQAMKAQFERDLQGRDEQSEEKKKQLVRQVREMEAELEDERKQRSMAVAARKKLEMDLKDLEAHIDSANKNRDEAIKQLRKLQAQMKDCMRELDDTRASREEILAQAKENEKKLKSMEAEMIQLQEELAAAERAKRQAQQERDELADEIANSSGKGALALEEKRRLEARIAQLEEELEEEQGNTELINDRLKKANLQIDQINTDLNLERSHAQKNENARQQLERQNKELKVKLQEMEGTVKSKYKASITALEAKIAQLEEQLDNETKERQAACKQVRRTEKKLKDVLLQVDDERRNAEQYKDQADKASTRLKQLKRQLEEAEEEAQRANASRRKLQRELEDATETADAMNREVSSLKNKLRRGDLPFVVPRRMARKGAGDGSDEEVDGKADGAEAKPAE
UniProt P30101, residues 25-505: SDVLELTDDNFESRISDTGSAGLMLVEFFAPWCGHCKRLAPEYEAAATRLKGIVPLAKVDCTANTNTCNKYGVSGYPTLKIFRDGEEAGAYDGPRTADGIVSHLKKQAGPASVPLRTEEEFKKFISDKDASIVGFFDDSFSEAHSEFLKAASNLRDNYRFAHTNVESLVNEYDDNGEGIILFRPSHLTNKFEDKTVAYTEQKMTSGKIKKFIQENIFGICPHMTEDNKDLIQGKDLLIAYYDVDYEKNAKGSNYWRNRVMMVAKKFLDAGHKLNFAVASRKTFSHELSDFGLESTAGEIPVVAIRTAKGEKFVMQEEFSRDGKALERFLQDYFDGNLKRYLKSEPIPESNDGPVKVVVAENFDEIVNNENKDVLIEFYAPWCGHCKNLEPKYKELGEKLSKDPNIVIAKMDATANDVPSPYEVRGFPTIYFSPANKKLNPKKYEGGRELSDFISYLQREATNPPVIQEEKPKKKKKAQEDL

The experiment deals with T1, wild-type FAM46C, C-terminally Myc-DDK tagged (human) (UniProt Q5VWP2).
T1 sequence: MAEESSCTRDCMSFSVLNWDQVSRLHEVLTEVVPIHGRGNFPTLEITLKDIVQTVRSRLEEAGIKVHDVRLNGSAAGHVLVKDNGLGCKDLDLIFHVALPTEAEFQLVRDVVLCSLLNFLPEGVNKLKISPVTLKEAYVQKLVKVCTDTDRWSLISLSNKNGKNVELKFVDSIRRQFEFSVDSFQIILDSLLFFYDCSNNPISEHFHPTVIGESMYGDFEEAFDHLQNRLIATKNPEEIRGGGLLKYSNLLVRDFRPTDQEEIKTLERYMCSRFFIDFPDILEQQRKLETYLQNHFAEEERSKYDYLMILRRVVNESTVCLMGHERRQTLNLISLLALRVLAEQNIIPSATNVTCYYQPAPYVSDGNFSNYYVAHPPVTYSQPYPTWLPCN
As to the kind of experiment: co-IP; anti-FLAG immunoprecipitation of FAM46C from HEK-293T lysate as for the mass spectrometry, Western blotting with α-MYH9 and α-PDIA3 antibodies; in the presence of viral proteins. (In general: Immunoblotting shows a protein as a band on a membrane.)

These are yes or no findings as the source states them, for the method shown. In cells and extracts the contact can be indirect. Some binding calls cover weakened binding; strength is not graded here. Sequences can lack the tags named with a protein.

For “Myosin-9 (MYH9) (from UniProt P35579 1-1960)”, the binding result is given as “binds”.
In the case of PDIA3 (from UniProt P30101 25-505), the binding entry is on record as “binds”.
